# Data as given in PubChem BioAssay (NCATS).
# This list was built around the results that the source calls inconclusive (neither active nor inactive); the mix of calls is not that of the screen. For some of these results: Potencies beside an inconclusive call are fits to weak or partial responses and may not hold up. Calls of active or inactive are those of the source. Calls follow the shape of the dose curve; as a rule, active = well fitted curve in the direction sought with a large enough effect; inconclusive = small, poorly fitted or top-dose-only effect, or another doubt; inactive = no such curve, though single readings can be large; an effect the other way counts as inactive or inconclusive.
# Assays:
# [1] = Quantitative High-Throughput drug screen in 47 multiple myeloma cell lines against the NCATS MIPE library collection: Karpas417_ECACC cell viability assay (AID 1918961); settings: Karpas417 myeloma viability, CellTiter-Glo ATP luminescence, 48 h; viability (% of DMSO): at 45.8 µM (top of the series)
# Summary of the method: (§1)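 CellTiter-Glo ATP luminescence gave viability after 48 h compound treatment at 37C of 500 multiple myeloma cells per well. Normalisation used DMSO-only wells as 100% and media-only wells as 0% viability; primary qHTS of approved and investigational drugs.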
# [2] = Quantitative High-Throughput drug screen in 47 multiple myeloma cell lines against the NCATS MIPE library collection: KHM11_PLB cell viability assay (AID 1918962); settings: KHM11 myeloma cell viability, CellTiter-Glo ATP luminescence, 48 h; viability, % of DMSO control: at 45.8 µM (top of the series); also: nearly all actives have a fitted effect of over 35% in size
# Summary of the method: (§2)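 Myeloma cells (500 per well) were exposed to MIPE 4.0 compounds by pin transfer and incubated 48 hours at 37C, 5% CO2. Viability was read as ATP by CellTiter-Glo luminescence, normalised to DMSO (100%) and media-only (0%) wells.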
# [3] = Quantitative High-Throughput drug screen in 47 multiple myeloma cell lines against the NCATS MIPE library collection: JIM1_ECACC cell viability assay (AID 1918964); settings: JIM1 myeloma viability, CellTiter-Glo ATP luminescence, 48 h; viability (% of DMSO): at 45.8 µM (top of the series)
# Summary of the method: (§3)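 Primary qHTS used for cherry-picking: cells at 500/well, library compounds for 48 h (37C, 5% CO2), luminescent ATP assay.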
# [4] = Quantitative High-Throughput drug screen in 47 multiple myeloma cell lines against the NCATS MIPE library collection: INA6_PLB cell viability assay (AID 1918965; also: nearly all actives have a fitted effect of over 55% in size); settings: INA6 myeloma viability, CellTiter-Glo ATP luminescence, 48 h; viability (% of control): at 45.8 µM (top of the series)
# Summary of the method: as §1
# [5] = Quantitative High-Throughput drug screen in 47 multiple myeloma cell lines against the NCATS MIPE library collection: JJN3_DSMZ cell viability assay (AID 1918966; also: nearly all actives have a fitted effect of over 50% in size)
# Summary of the method: as §3
# [6] = Quantitative High-Throughput drug screen in 47 multiple myeloma cell lines against the NCATS MIPE library collection: KMS27_JCRB cell viability assay (AID 1918970); settings: KMS27 myeloma cells, CellTiter-Glo ATP viability, 48 h; viability (% of DMSO): at 45.8 µM (top of the series); also: nearly all actives have a fitted effect of over 30% in size
# Summary of the method: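 Myeloma cells (500 per well) were exposed to MIPE 4.0 compounds for 48 h at 37 °C, 5% CO2; viability was read as ATP luminescence with CellTiter-Glo, normalized to DMSO-only (100%) and media-only (0%) wells.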
# [7] = Quantitative High-Throughput drug screen in 47 multiple myeloma cell lines against the NCATS MIPE library collection: KMS20_JCRB cell viability assay (AID 1918973); settings: CellTiter-Glo ATP, 48 h; viability (% of DMSO): at 45.8 µM (top of the series); also: nearly all actives have a fitted effect of over 45% in size
# Summary of the method: as §3
# [8] = Quantitative High-Throughput drug screen in 47 multiple myeloma cell lines against the NCATS MIPE library collection: KMS21BM_JCRB cell viability assay (AID 1918974); settings: ATP luminescence, 48 h; viability: at 45.8 µM (top of the series)
# Summary of the method: as §3
# [9] = Quantitative High-Throughput drug screen in 47 multiple myeloma cell lines against the NCATS MIPE library collection: KMS26_JCRB cell viability assay (AID 1918975); settings: KMS26 myeloma cells viability, CellTiter-Glo ATP, 48 h; viability (% of DMSO): at 45.8 µM (top of the series); also: nearly all actives have a fitted effect of over 45% in size
# Summary of the method: (§4)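 Myeloma cell lines, 500 cells per well, exposed to MIPE 4.0 library compounds for 48 h at 37C, 5% CO2. Viability from ATP by CellTiter-Glo luminescence; normalised to DMSO (100%) and media-only (0%) wells.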
# [10] = Quantitative High-Throughput drug screen in 47 multiple myeloma cell lines against the NCATS MIPE library collection: MOLP8_DSMZ cell viability assay (AID 1918977); also: nearly all actives have a fitted effect of over 45% in size
# Summary of the method: (§5)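 ATP-based CellTiter-Glo luminescence after 48 h drug exposure (37 °C, 5% CO2) of 500 myeloma cells per well. DMSO-only wells set 100% viability, media-only wells 0%; MIPE 4.0 library added by pin tool.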
# [11] = Quantitative High-Throughput drug screen in 47 multiple myeloma cell lines against the NCATS MIPE library collection: MM1R_ATCC cell viability assay (AID 1918981); also: nearly all actives have a fitted effect of over 35% in size
# Summary of the method: as §5
# [12] = Quantitative High-Throughput drug screen in 47 multiple myeloma cell lines against the NCATS MIPE library collection: H1112_PLB cell viability assay (AID 1918967; also: nearly all actives have a fitted effect of over 30% in size)
# Summary of the method: as §3
# [13] = Quantitative High-Throughput drug screen in 47 multiple myeloma cell lines against the NCATS MIPE library collection: KMS12BM_JCRB cell viability assay (AID 1918971); also: nearly all actives have a fitted effect of over 35% in size
# Summary of the method: as §4
# [14] = Quantitative High-Throughput drug screen in 47 multiple myeloma cell lines against the NCATS MIPE library collection: KMS12PE_JCRB cell viability assay (AID 1918972); settings: KMS12PE myeloma viability, CellTiter-Glo ATP, 48 h; viability: at 45.8 µM (top of the series); also: nearly all actives have a fitted effect of over 30% in size
# Summary of the method: as §1
# [15] = Quantitative High-Throughput drug screen in 47 multiple myeloma cell lines against the NCATS MIPE library collection: MMM1_PLB cell viability assay (AID 1918976); also: nearly all actives have a fitted effect of over 35% in size
# Summary of the method: as §5
# [16] = Quantitative High-Throughput drug screen in 47 multiple myeloma cell lines against the NCATS MIPE library collection: OCIMY1_PLB cell viability assay (AID 1918979); also: nearly all actives have a fitted effect of over 35% in size
# Summary of the method: as §5
# [17] = Quantitative High-Throughput drug screen in 47 multiple myeloma cell lines against the NCATS MIPE library collection: MM1S_ATCC cell viability assay (AID 1918980); also: nearly all actives have a fitted effect of over 45% in size
# Summary of the method: as §5
# [18] = Quantitative High-Throughput drug screen in 47 multiple myeloma cell lines against the NCATS MIPE library collection: JIM3_ECACC cell viability assay (AID 1918963; also: nearly all actives have a fitted effect of over 35% in size); settings: JIM3 myeloma viability, CellTiter-Glo ATP, 48 h; viability, percent of control: at 45.8 µM (top of the series)
# Summary of the method: as §2
# [19] = Quantitative High-Throughput drug screen in 47 multiple myeloma cell lines against the NCATS MIPE library collection: Karpas25_ECACC cell viability assay (AID 1918968; also: nearly all actives have a fitted effect of over 35% in size)
# Summary of the method: as §3
# Potency is read from the fitted curve at half-maximal effect.
Compound,Potency [1],Potency [2],Potency [3],Potency [4],Potency [5],Potency [6],Potency [7],Potency [8],viability (% of DMSO) [9],Potency [10],Potency [11],Potency [12],Potency [13],Potency [14],Potency [15],Potency [16],Potency [17],Potency [18],Potency [19],Potency [9]
CCCN1CCO[C@@H]2c3cc(O)ccc3OC[C@@H]21,"inconclusive: 29.6 µM [rising, single point]","inconclusive: 4.69 µM [cytotoxic, partial curve, poor fit]","inconclusive: 0.0187 µM [cytotoxic, full curve, poor fit]","inconclusive: 0.0166 µM [cytotoxic, full curve, poor fit]","inconclusive: 0.0059 µM [cytotoxic, full curve, poor fit]",inactive,"inconclusive: 0.264 µM [cytotoxic, full curve, poor fit]","inconclusive: 23.5 µM [rising, partial curve, poor fit]",inconclusive: 108% [cytotoxic],"inconclusive: 14.8 µM [cytotoxic, partial curve, poor fit]","inconclusive: 20.9 µM [cytotoxic, partial curve]",–,–,–,–,–,–,–,–,–
CC1=NN=C(c2ccc(N)cc2)c2cc3c(cc2C1)OCO3,active: 20.9 µM,"inconclusive: 0.0296 µM [rising, full curve, poor fit]","inconclusive: 13.2 µM [cytotoxic, partial curve, poor fit]",inactive,inactive,"inconclusive: 20.9 µM [cytotoxic, partial curve, poor fit]","inconclusive: 29.6 µM [cytotoxic, partial curve, poor fit]",active: 14.8 µM,–,"inconclusive: 16.6 µM [cytotoxic, partial curve, poor fit]",–,inactive,inactive,"inconclusive: 37.2 µM [cytotoxic, single point]","inconclusive: 26.4 µM [cytotoxic, single point]","inconclusive: 0.0105 µM [rising, full curve, poor fit]","inconclusive: 37.2 µM [cytotoxic, single point]",–,–,–
C#CCN(C)[C@H](C)Cc1ccccc1,"inconclusive: 11.8 µM [rising, full curve, poor fit]",–,"inconclusive: 6.62 µM [cytotoxic, single point]","inconclusive: 4.69 µM [rising, full curve, poor fit]",active: 8.33 µM,"inconclusive: 16.6 µM [cytotoxic, partial curve, poor fit]",inactive,"inconclusive: 3.32 µM [cytotoxic, full curve, poor fit]",–,"inconclusive: 26.4 µM [cytotoxic, single point]","inconclusive: 37.2 µM [cytotoxic, partial curve, poor fit]",–,"inconclusive: 18.7 µM [cytotoxic, partial curve, poor fit]",–,–,–,inactive,inactive,inactive,inactive
COC[C@H]1OC(=O)c2coc3c2[C@@]1(C)C1=C(C3=O)[C@@H]2CC[C@H](O)[C@@]2(C)C[C@@H]1OC(C)=O,"inconclusive: 1.32 µM [cytotoxic, full curve, poor fit]",–,active: 1.48 µM,active: 1.18 µM,active: 3.32 µM,active: 4.69 µM,active: 5.26 µM,–,–,"inconclusive: 0.372 µM [cytotoxic, full curve]",–,–,–,–,–,"inconclusive: 6.62 µM [cytotoxic, partial curve]",–,"inconclusive: 1.66 µM [cytotoxic, partial curve]",–,–
O=C(Nc1ccncc1)C(=O)c1cn(Cc2ccc(Cl)cc2)c2ccccc12,"inconclusive: 0.209 µM [cytotoxic, full curve, poor fit]","inconclusive: 0.296 µM [cytotoxic, full curve, poor fit]",–,active: 0.0132 µM,"inconclusive: 16.6 µM [cytotoxic, partial curve, poor fit]",active: 0.0209 µM,"inconclusive: 0.0074 µM [cytotoxic, full curve]",active: 0.0074 µM,–,"inconclusive: 0.118 µM [cytotoxic, full curve, poor fit]",–,"inconclusive: 0.0166 µM [cytotoxic, full curve]",–,–,–,active: 0.118 µM,–,–,–,active: 9.35 µM
CO[C@H]1CCC(O[C@H]2C[C@H]([C@]3(C)CC[C@]4(C[C@H](O)[C@@H](C)[C@@H]([C@@H](C)C=C(C)C(=O)[C@H](C)C[C@H](C)C(=O)O)O4)O3)O[C@]3(O[C@@H]([C@H]4O[C@@](O)(CO)[C@H](C)C[C@H]4C)C[C@H]3C)[C@H]2C)O[C@H]1C (stereo not given in full),"inconclusive: 37.2 µM [rising, partial curve, poor fit]","inconclusive: 1.48 µM [cytotoxic, full curve]","inconclusive: 0.264 µM [cytotoxic, full curve, poor fit]",–,–,"inconclusive: 0.935 µM [cytotoxic, partial curve, poor fit]",active: 0.235 µM,"inconclusive: 37.2 µM [rising, partial curve, poor fit]",–,active: 0.296 µM,active: 1.05 µM,–,–,–,active: 1.66 µM,–,–,–,active: 1.48 µM,–
